Results as given in patent publication US20210087163A1, “PHENOXY THIOPHENE SULFONAMIDES AND OTHER COMPOUNDS FOR USE AS INHIBITORS OF BACTERIAL GLUCURONIDASE” (NORTH CAROLINA CENTRAL UNIVERSITY, priority 2010, published 2021).

The chains behind the UniProt entries cited, without tags or fusion partners. Where a name states a change or a piece, a line headed by the entry shows the natural chain unless it says otherwise.
UniProt P05804: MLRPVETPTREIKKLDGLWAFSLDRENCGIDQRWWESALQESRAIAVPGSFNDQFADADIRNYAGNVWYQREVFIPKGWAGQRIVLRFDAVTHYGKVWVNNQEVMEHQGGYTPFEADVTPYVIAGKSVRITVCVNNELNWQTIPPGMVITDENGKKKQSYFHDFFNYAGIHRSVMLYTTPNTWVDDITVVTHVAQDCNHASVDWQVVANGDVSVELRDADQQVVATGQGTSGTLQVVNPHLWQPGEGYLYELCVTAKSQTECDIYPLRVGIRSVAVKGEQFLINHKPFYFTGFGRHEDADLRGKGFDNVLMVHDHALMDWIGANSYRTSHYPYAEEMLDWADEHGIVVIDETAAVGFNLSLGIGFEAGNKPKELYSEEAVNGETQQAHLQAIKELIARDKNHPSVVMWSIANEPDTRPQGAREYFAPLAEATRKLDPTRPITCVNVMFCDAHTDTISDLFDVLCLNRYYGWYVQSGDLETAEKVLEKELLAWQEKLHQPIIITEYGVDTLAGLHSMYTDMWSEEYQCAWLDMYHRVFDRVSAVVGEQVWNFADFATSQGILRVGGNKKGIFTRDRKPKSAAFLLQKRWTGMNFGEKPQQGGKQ

Biological target: endogenous GUS activity in whole E. coli cells (Escherichia coli, UniProt P05804)
Assay: GUS cell based assay (whole E. coli cells, 4MUG)
Conditions: running text
Method: An E. coli cell based assay was developed in order to assess the activity of these drugs against whole cells, instead of purified enzyme. We took advantage of the well-known specificity and sensitivity of the 4MUG substrate to detect GUS activity in E. coli cells. This assay mimicked the enzyme assay in format, with the GUS enzyme replaced by live log-phase E. coli cells and the assay incubated for a longer time (2 hr) to detect GUS activity in these un-modified cells.
Cultures of E col (DH5α) carrying the empty expression vector pCMV5 were grown over night in LB containing carbenicilin (50 μM) and then used to initiate fresh LB/carbenicillin cultures adjusted to an initial OD of 0.1. These cultures were allowed to reach an OD of 0.6 and then washed twice with 50 mM HEPES, pH 7.4 containing carbenicillin 50 μM, and concentrated by centrifugation to an OD of 1 for use in the assay. The GUS cell based assay was performed in an identical manner as the enzyme assay except the Triton X-100 was left out of the assay buffer, the E. coli cells replaced the enzyme and the reaction was allowed to proceed for 2 hrs at 37° C. The resulting data was analyzed as outlined for the enzyme assay.

`Clc1ccc2c(c1)C(N1CCNCC1)=Nc1ccccc1O2` [Amoxapine, amoxapine] was tested, and the IC50 was 119 ± 61 nM.
